# This is one part of the list.
# What was measured:
# Test in all cases: glycan array binding signal (z-score within array); higher = stronger binding
# Settings in all cases: glycan notation: IUPAC condensed, linker removed
# [1] = target: Fuc(a1-2)Gal(b1-4)GlcNAc(b1-3)Gal(b1-4)GlcNAc(b1-2)Man(a1-3)[Fuc(a1-2)Gal(b1-4)GlcNAc(b1-3)Gal(b1-4)GlcNAc(b1-2)Man(a1-6)]Man(b1-4)GlcNAc(b1-4)GlcNAc
# Outline: (§1)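 Glycan array data came from 3228 arrays in the Consortium for Functional Glycomics database, and only arrays with an available protein sequence were kept. Glycan names were put into IUPAC-condensed notation, and columns mapping to the same glycan were averaged. The binding signal is a within-array Z-score, averaged across arrays of one protein sequence run at different concentrations or buffers and across linkers. A negative Z-score can be read as non-binding.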
# [2] = target: Fuc(a1-2)Gal(b1-4)GlcNAc(b1-3)Gal(b1-4)GlcNAc(b1-3)Gal(b1-4)GlcNAc
# Outline: as §1
# [3] = target: Fuc(a1-2)Gal(b1-4)GlcNAc(b1-3)GalNAc
# Outline: as §1
# [4] = target: Fuc(a1-2)Gal(b1-4)GlcNAc(b1-3)[Fuc(a1-2)Gal(b1-4)GlcNAc(b1-6)]GalNAc
# Outline: as §1
# [5] = target: Fuc(a1-2)Gal(b1-4)GlcNAc(b1-3)[Fuc(a1-3)[Gal(b1-4)]GlcNAc(b1-6)]Gal(b1-4)Glc
# Outline: as §1
# [6] = target: Fuc(a1-2)Gal(b1-4)GlcNAc(b1-6)GalNAc
# Outline: as §1
# [7] = target: Fuc(a1-2)Gal(b1-4)GlcNAc6S
# Outline: as §1
# [8] = target: Fuc(a1-2)Gal(b1-4)[Fuc(a1-3)]GlcNAc
# Outline: as §1
# [9] = target: Fuc(a1-2)Gal(b1-4)[Fuc(a1-3)]GlcNAc(b1-2)Man(a1-3)[Fuc(a1-2)Gal(b1-4)[Fuc(a1-3)]GlcNAc(b1-2)Man(a1-6)]Man(b1-4)GlcNAc(b1-4)[Fuc(a1-6)]GlcNAc
# Outline: as §1
# [10] = target: Fuc(a1-2)Gal(b1-4)[Fuc(a1-3)]GlcNAc(b1-2)[Fuc(a1-2)Gal(b1-4)[Fuc(a1-3)]GlcNAc(b1-4)]Man(a1-3)[Fuc(a1-2)Gal(b1-4)[Fuc(a1-3)]GlcNAc(b1-2)Man(a1-6)]Man(b1-4)GlcNAc(b1-4)GlcNAc
# Outline: as §1
# [11] = target: Fuc(a1-2)Gal(b1-4)[Fuc(a1-3)]GlcNAc(b1-3)Gal(b1-4)[Fuc(a1-3)]GlcNAc
# Outline: as §1
# [12] = target: Fuc(a1-2)Gal(b1-4)[Fuc(a1-3)]GlcNAc(b1-3)Gal(b1-4)[Fuc(a1-3)]GlcNAc(b1-3)Gal(b1-4)[Fuc(a1-3)]GlcNAc
# Outline: as §1
# [13] = target: Fuc(a1-2)Gal(b1-4)[Fuc(a1-3)]GlcNAc(b1-3)GalNAc
# Outline: as §1
# [14] = target: Fuc(a1-2)Gal(b1-4)[Fuc(a1-3)]GlcNAc(b1-3)[Neu5Ac(a2-6)Gal(b1-4)GlcNAc(b1-6)]Gal(b1-4)Glc
# Outline: as §1
# [15] = target: Fuc(a1-2)Gal3S(b1-4)GlcNAc
# Outline: as §1
# [16] = target: Fuc(a1-2)Gal6S(b1-3)GlcNAc
# Outline: as §1
# [17] = target: Fuc(a1-2)Gal6S(b1-3)GlcNAc6S
# Outline: as §1
# Fuc(a1-2)Gal6S(b1-4)Glc = target: Fuc(a1-2)Gal6S(b1-4)Glc
# Outline: as §1
# [18] = target: Fuc(a1-2)Gal6S(b1-4)Glc6S
# Outline: as §1
# Fuc(a1-2)[Gal(a1-3)]Gal = target: Fuc(a1-2)[Gal(a1-3)]Gal
# Outline: as §1
# [19] = target: Fuc(a1-2)[Gal(a1-3)]Gal(b1-3)GalNAc
# Outline: as §1
# [20] = target: Fuc(a1-2)[Gal(a1-3)]Gal(b1-3)GalNAc(b1-3)Gal(a1-4)Gal(b1-4)Glc
# Outline: as §1
# [21] = target: Fuc(a1-2)[Gal(a1-3)]Gal(b1-3)GlcNAc
# Outline: as §1
# [22] = target: Fuc(a1-2)[Gal(a1-3)]Gal(b1-3)GlcNAc(b1-2)Man(a1-3)[Fuc(a1-2)[Gal(a1-3)]Gal(b1-3)GlcNAc(b1-2)Man(a1-6)]Man(b1-4)GlcNAc(b1-4)GlcNAc
# Outline: as §1
# [23] = target: Fuc(a1-2)[Gal(a1-3)]Gal(b1-3)GlcNAc(b1-2)Man(a1-3)[Fuc(a1-2)[Gal(a1-3)]Gal(b1-3)GlcNAc(b1-2)Man(a1-6)]Man(b1-4)GlcNAc(b1-4)[Fuc(a1-6)]GlcNAc
# Outline: as §1
# [24] = target: Fuc(a1-2)[Gal(a1-3)]Gal(b1-3)GlcNAc(b1-3)GalNAc
# Outline: as §1
# [25] = target: Fuc(a1-2)[Gal(a1-3)]Gal(b1-3)GlcNAc(b1-6)GalNAc
# Outline: as §1
# [26] = target: Fuc(a1-2)[Gal(a1-3)]Gal(b1-4)Glc
# Outline: as §1
# [27] = target: Fuc(a1-2)[Gal(a1-3)]Gal(b1-4)GlcNAc
# Outline: as §1
# [28] = target: Fuc(a1-2)[Gal(a1-3)]Gal(b1-4)GlcNAc(b1-2)Man
# Outline: as §1
binder,measurement,setting,value
Epa8 (Candida glabrata) (protein) MGSSHHHHHHSSGLVPRGSHMASSRALSDYPLGCSPLLGTKLTPGLSMELYEYPLDNHGIGPHCWDPAYLNPEYPRTGFESHKLIGTAQNVMSLNFEHRTQDCHVEFSNLPASFNFPDQITLTNFTMLLYGYFKPKESGRYRFHMEADDLLLMNLGAGNAFDCCAHEATRNNLGDYIAYDIWAGTRKDVEVFLEKEVFYPLRLFFNNRDGRAALDFSYYLNGATEPGTDIPELLFSLPDGESCPAYI,glycan array binding signal (z-score),[1],-1.67
same,glycan array binding signal (z-score),[2],0.526
same,glycan array binding signal (z-score),[3],0.143
same,glycan array binding signal (z-score),[4],-0.207
same,glycan array binding signal (z-score),[5],0.972
same,glycan array binding signal (z-score),[6],0.724
same,glycan array binding signal (z-score),[7],-0.155
same,glycan array binding signal (z-score),[8],-0.281
same,glycan array binding signal (z-score),[9],0.259
same,glycan array binding signal (z-score),[10],0.9
same,glycan array binding signal (z-score),[11],-0.915
same,glycan array binding signal (z-score),[12],-0.498
same,glycan array binding signal (z-score),[13],2.63
same,glycan array binding signal (z-score),[14],-0.368
same,glycan array binding signal (z-score),[15],-0.437
same,glycan array binding signal (z-score),[16],-0.386
same,glycan array binding signal (z-score),[17],1.52
same,glycan array binding signal (z-score),Fuc(a1-2)Gal6S(b1-4)Glc,-0.314
same,glycan array binding signal (z-score),[18],-0.062
same,glycan array binding signal (z-score),Fuc(a1-2)[Gal(a1-3)]Gal,-0.74
same,glycan array binding signal (z-score),[19],0.146
same,glycan array binding signal (z-score),[20],0.323
same,glycan array binding signal (z-score),[21],-0.24
same,glycan array binding signal (z-score),[22],-0.447
same,glycan array binding signal (z-score),[23],0.488
same,glycan array binding signal (z-score),[24],0.166
same,glycan array binding signal (z-score),[25],-0.457
same,glycan array binding signal (z-score),[26],-0.681
same,glycan array binding signal (z-score),[27],-0.826
same,glycan array binding signal (z-score),[28],-0.336

# Pulled one by one from above:
binder,measurement,setting,value
Epa8 (Candida glabrata) (protein) MGSSHHHHHHSSGLVPRGSHMASSRALSDYPLGCSPLLGTKLTPGLSMELYEYPLDNHGIGPHCWDPAYLNPEYPRTGFESHKLIGTAQNVMSLNFEHRTQDCHVEFSNLPASFNFPDQITLTNFTMLLYGYFKPKESGRYRFHMEADDLLLMNLGAGNAFDCCAHEATRNNLGDYIAYDIWAGTRKDVEVFLEKEVFYPLRLFFNNRDGRAALDFSYYLNGATEPGTDIPELLFSLPDGESCPAYI,glycan array binding signal (z-score),[5],0.972
same,glycan array binding signal (z-score),[24],0.166

# Source: the supplement of paper PMC8728848
